Laboratory results published in article PMC5450843.

By UniProt entry, the sequences of proteins in these tests, tags left out. Where a name states a change or a piece, a line headed by the entry shows the natural chain unless it says otherwise.
UniProt P40764: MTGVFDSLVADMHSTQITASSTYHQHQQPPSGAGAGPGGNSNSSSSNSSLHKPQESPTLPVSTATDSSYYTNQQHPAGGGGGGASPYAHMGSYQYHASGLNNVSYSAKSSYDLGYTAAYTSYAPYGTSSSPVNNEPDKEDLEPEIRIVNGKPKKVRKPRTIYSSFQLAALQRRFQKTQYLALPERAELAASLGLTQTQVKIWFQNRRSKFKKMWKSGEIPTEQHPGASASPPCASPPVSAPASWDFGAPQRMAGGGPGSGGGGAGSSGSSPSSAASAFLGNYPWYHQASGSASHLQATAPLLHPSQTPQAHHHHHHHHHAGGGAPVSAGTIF
UniProt Q64317: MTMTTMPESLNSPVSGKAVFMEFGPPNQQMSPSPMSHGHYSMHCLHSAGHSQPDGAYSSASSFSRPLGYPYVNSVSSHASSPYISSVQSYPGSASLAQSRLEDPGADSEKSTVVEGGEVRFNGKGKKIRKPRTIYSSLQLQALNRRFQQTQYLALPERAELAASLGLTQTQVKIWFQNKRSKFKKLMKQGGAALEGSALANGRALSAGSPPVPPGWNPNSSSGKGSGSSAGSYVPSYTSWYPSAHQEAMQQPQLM

What was measured:
DLX2 = DLX2 (UniProt P40764); assay: EMSA; settings: 1 ug poly-dI-dC, competed by 100-fold unlabeled probe, supershifted by DLX2 antibody, not by control IgG; EMSA: 20% glycerol, 5 mM MgCl2, 2.5 mM EDTA, 2.5 mM DTT, 250 mM NaCl, 50 mM Tris-HCl pH 7.5, 1 ug poly-dI-dC, 30 min at room temperature; recombinant protein; label: 32P (alpha-32P-dATP, Klenow fill-in); probe letters rebuilt from the primers and the genome; part of a longer molecule
DLX1 = DLX1 (UniProt Q64317); assay: EMSA; settings: 1 ug poly-dI-dC, competed by 100-fold unlabeled probe, supershifted by DLX1 antibody, not by control IgG; EMSA: 20% glycerol, 5 mM MgCl2, 2.5 mM EDTA, 2.5 mM DTT, 250 mM NaCl, 50 mM Tris-HCl pH 7.5, 1 ug poly-dI-dC, 30 min at room temperature; recombinant protein; label: 32P (alpha-32P-dATP, Klenow fill-in); probe letters rebuilt from the primers and the genome; part of a longer molecule

“CTCAGTGTTGAGTGAGGAAGGACCACATGCCCAAAGAAATTCTGAGCAGAGTAGGAAACATCAGGAAGACAAATGTTTTCCTCCACCTAATTCCCCCAGACTGTTACAGGGAGTGAGGTACAGAAAGAGAAAAAACTTTGTGGTATTTCAACTCCTAAGTAGTGTGTTTATGTGTATAAATAAAGGCACAAAAGATACCAAGGAGGGAAACCGCATGGGGAAGGATTCTTCCCTTTCATTAGGTGTCTAATTAGATGTAAAGTCAAAAGCAGCCCTGAGGACTTGCCCAAACACTATTGTGGCAACAGTCTGCTGAAC (double strand) [3bP4 (S4-pro) Brn3b promoter fragment]”: binds (DLX2); binds (DLX1).

Construct, isoform or probe ends are uncertain for at least one entry.
